According to the supplement of paper PMC6411743:
± gives the standard deviation of the averaged measurements. The list shows a part of the results, in another mix than the full data.

Chains of the proteins cited; added tags and fusions are not shown. Lines headed by an entry give the natural chain unless they say otherwise; changes in a name come on top.
UniProt P22830: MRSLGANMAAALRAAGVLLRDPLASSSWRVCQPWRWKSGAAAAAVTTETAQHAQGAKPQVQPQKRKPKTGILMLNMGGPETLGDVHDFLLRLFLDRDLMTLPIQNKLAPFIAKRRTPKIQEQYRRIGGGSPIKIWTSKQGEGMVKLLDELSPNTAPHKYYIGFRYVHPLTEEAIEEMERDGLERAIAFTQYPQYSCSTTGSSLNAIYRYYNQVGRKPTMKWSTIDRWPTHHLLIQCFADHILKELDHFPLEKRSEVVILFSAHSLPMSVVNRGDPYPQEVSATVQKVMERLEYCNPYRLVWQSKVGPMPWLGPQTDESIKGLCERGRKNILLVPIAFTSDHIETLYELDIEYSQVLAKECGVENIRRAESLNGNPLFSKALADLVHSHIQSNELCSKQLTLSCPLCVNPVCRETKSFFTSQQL
UniProt P17706: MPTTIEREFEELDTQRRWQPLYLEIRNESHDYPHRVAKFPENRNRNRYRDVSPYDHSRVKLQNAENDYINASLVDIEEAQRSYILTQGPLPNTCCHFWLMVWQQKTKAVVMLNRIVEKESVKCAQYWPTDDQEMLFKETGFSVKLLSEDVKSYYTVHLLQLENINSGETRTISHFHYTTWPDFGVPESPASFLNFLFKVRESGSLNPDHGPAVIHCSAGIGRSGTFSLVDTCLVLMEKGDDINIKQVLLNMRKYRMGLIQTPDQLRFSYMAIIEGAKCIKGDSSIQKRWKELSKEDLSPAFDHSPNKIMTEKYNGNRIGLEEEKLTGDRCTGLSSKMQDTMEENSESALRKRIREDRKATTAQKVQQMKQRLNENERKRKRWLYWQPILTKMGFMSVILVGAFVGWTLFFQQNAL
UniProt P30043: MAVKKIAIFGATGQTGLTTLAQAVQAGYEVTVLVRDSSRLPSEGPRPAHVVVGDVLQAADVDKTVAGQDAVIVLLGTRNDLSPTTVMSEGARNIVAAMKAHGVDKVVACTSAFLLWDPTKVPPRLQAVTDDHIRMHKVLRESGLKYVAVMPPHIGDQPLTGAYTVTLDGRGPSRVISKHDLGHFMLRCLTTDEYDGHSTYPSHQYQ
UniProt P21796, whole entry: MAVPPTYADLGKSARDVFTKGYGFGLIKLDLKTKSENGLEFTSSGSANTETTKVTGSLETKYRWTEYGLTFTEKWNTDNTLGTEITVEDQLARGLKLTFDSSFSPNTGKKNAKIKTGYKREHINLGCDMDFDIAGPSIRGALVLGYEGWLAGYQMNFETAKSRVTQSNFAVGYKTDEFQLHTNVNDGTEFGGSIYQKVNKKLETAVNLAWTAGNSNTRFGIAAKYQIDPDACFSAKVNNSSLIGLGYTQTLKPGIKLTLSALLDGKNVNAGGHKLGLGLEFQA
UniProt P36543, whole entry: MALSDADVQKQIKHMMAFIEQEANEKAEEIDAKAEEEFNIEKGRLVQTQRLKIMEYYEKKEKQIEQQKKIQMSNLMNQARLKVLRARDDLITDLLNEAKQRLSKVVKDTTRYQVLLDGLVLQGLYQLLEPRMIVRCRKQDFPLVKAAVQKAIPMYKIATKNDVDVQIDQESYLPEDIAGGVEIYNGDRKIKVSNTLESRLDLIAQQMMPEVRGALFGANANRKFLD
UniProt P33240: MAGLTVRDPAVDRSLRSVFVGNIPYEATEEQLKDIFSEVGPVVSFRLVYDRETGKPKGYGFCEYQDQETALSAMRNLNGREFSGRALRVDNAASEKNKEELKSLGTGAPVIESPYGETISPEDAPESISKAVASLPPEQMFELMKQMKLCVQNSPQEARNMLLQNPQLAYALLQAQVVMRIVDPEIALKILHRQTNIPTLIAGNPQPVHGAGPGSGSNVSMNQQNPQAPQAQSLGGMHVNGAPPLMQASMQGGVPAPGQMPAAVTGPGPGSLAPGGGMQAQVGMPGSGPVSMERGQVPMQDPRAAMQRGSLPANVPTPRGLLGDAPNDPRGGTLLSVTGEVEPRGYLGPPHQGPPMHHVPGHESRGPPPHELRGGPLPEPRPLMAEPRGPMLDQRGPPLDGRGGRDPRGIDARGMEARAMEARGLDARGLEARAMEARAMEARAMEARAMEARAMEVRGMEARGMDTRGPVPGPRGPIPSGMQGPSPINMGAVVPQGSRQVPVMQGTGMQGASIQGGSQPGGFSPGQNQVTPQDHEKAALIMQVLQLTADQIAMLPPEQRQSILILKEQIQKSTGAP
UniProt P28070, whole entry: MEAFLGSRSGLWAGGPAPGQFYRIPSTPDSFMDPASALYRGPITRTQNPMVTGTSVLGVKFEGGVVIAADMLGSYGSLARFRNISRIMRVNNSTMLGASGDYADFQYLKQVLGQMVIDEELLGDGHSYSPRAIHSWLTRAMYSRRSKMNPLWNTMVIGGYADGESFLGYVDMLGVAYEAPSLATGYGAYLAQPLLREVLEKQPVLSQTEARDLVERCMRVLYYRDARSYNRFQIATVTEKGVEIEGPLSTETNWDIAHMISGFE
UniProt P31930: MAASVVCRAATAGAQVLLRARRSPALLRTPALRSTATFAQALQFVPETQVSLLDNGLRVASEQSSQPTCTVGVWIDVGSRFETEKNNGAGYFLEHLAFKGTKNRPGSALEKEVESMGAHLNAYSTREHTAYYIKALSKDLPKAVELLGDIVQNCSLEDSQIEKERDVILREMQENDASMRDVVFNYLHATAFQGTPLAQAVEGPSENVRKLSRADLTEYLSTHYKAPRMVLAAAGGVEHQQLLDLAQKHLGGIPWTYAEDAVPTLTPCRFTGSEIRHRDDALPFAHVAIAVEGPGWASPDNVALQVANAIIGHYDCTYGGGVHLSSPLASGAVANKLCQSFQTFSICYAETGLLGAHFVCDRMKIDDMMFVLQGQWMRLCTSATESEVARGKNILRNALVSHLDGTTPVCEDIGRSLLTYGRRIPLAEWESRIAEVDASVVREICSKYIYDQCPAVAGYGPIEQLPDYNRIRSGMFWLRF
UniProt P32929, whole entry: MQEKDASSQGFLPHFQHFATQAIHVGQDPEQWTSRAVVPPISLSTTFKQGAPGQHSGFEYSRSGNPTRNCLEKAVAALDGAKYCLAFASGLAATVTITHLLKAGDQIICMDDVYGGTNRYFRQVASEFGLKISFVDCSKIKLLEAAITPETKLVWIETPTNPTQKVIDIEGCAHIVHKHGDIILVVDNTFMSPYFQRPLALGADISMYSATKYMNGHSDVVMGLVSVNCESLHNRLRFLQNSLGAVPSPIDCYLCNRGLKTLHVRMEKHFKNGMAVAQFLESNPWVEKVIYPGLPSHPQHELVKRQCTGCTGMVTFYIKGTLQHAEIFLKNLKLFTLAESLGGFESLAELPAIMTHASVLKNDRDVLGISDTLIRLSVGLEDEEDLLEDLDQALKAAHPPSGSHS
UniProt P37198: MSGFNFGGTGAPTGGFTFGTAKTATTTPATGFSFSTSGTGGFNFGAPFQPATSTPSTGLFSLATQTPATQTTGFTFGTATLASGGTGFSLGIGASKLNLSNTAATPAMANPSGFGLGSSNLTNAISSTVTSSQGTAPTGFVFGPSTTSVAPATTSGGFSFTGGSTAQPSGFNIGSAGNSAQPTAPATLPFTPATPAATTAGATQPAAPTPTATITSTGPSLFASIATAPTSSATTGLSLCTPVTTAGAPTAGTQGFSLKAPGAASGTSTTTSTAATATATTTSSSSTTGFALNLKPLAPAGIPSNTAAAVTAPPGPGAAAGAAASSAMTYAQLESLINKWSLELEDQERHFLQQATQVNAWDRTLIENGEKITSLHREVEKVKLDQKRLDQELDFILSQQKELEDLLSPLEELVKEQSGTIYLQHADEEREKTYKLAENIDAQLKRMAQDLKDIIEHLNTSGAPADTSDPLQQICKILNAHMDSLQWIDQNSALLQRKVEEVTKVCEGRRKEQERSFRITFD
UniProt P37837: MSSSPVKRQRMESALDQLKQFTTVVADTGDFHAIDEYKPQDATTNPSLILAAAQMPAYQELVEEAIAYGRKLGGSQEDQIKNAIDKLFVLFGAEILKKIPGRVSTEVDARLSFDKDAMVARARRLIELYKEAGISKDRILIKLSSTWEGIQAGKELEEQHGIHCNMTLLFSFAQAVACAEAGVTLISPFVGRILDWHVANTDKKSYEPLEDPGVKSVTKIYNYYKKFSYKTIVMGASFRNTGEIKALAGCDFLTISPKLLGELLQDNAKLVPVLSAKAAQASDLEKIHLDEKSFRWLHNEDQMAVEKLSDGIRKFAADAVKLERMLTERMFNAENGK
UniProt P28838: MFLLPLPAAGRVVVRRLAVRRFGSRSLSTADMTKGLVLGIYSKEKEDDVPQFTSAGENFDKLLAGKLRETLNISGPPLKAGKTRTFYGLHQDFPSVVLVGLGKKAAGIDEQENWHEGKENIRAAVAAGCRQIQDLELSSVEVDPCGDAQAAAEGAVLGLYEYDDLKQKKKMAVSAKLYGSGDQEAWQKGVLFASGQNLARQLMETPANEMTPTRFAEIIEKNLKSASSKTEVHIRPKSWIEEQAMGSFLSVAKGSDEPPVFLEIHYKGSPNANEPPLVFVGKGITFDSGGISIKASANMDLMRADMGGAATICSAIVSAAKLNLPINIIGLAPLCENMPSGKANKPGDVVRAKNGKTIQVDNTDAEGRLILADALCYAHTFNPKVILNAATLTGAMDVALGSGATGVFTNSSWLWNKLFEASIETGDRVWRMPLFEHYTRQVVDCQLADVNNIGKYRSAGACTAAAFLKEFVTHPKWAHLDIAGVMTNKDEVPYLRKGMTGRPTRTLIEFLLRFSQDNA
UniProt P21675, whole entry: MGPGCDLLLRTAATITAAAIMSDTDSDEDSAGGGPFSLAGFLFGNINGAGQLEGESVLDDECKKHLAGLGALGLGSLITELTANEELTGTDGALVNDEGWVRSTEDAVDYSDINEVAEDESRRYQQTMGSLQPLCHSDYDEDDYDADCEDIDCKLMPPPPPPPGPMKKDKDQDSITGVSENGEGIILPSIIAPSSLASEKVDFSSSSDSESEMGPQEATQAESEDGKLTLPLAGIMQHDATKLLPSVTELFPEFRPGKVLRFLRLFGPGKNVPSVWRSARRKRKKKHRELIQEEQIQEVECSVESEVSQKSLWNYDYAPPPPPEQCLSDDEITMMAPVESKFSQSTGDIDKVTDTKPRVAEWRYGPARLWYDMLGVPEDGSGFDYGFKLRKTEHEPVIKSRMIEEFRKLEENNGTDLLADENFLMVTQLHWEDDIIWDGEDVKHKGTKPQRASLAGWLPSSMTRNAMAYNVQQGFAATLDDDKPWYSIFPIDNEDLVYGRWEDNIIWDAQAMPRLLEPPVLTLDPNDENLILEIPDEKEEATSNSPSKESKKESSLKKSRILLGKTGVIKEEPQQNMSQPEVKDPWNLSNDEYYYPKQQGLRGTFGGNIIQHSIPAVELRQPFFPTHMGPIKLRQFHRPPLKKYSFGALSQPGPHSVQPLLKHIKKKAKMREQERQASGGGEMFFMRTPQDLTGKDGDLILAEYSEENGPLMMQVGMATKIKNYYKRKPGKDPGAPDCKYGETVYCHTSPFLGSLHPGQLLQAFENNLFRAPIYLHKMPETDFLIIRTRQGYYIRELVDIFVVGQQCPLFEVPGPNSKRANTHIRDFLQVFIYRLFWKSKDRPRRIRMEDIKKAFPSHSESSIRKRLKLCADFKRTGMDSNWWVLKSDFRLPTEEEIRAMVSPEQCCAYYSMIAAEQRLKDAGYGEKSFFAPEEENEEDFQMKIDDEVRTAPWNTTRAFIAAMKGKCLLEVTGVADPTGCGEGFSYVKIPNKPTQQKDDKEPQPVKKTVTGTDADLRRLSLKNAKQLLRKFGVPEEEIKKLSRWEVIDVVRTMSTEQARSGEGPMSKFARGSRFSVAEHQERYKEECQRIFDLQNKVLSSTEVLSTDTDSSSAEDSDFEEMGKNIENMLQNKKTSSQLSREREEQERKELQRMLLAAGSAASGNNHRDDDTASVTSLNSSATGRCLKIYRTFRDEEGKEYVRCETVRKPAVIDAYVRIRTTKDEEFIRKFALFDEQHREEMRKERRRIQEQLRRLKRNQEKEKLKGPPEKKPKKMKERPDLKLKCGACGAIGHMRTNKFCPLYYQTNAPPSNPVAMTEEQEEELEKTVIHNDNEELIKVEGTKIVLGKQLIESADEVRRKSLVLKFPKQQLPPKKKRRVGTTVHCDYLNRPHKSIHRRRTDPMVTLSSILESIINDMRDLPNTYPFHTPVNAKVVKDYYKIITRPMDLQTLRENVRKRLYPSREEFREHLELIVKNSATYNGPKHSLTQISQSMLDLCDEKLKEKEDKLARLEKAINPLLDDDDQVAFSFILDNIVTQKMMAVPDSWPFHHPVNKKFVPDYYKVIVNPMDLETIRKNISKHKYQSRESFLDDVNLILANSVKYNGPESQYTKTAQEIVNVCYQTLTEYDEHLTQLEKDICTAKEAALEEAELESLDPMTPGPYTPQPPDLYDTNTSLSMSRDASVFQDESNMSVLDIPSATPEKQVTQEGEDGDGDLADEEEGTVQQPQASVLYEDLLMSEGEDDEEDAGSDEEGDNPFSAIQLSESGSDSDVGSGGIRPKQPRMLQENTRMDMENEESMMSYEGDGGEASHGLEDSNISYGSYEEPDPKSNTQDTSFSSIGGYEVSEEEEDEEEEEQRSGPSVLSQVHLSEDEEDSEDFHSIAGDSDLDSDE

Compound: Nc1ncnc2c1ncn2[C@@H]1O[C@H](COP(=O)(O)OP(=O)(O)NP(=O)(O)O)[C@@H](O)[C@H]1O [adenylyl imidodiphosphate]
Test: NP40-soluble protein abundance relative to vehicle (solubility fold change) (ratio); higher = more soluble protein in presence of AMP-PNP
Outline: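 In three independent experiments, Jurkat crude lysate made by Dounce homogenisation was treated for 10 min at room temperature and then 3 min at 37 °C with eight concentrations ranging from 0.1 to 10 mM. It was then solubilised with 0.8% NP40 plus benzonase for 60 min at 4 °C and ultracentrifuged. The supernatant was TMT-labelled for LC-MS/MS, and each value is the fold change against the detergent-processed vehicle for the same replicate, using vsn-normalised intensities.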

Target	NP40-soluble protein abundance (concentration: 1mM)	NP40-soluble protein abundance (concentration: 2mM)	NP40-soluble protein abundance (concentration: 4mM)	NP40-soluble protein abundance (concentration: 6mM)	NP40-soluble protein abundance (concentration: 8mM)	NP40-soluble protein abundance (concentration: 10mM)
SDHB (UniProt P21912)	0.976 ± 0.045	1 ± 0.056	0.987 ± 0.063	1.03 ± 0.079	1.02 ± 0.075	1.04 ± 0.052
UniProt P22830 and related entries	0.97 ± 0.0094	0.91 ± 0.096	0.948 ± 0.015	0.939 ± 0.022	0.959 ± 0.037	0.893 ± 0.012
AKT1 (UniProt P31749)	0.989 ± 0.048	0.97 ± 0.024	1.02 ± 0.025	1.03 ± 0.048	1.02 ± 0.044	1.06 ± 0.052
UniProt P28066 and related entries	1 ± 0.041	0.997 ± 0.023	0.968 ± 0.051	0.952 ± 0.081	0.925 ± 0.076	0.917 ± 0.11
UniProt P30622 and related entries	1.02 ± 0.029	1.08 ± 0.05	1.05 ± 0.031	1.03 ± 0.049	0.972 ± 0.021	1.03 ± 0.049
UniProt P30626 and related entries	0.971 ± 0.039	1.01 ± 0.033	0.992 ± 0.025	0.976 ± 0.049	0.968 ± 0.024	0.974 ± 0.063
UniProt P17706 and related entries	0.943 ± 0.054	0.971 ± 0.017	0.981 ± 0.074	1.017 ± 0.0033	0.989 ± 0.037	1.02 ± 0.04
HPCAL1 (UniProt P37235)	1.01 ± 0.02	1.02 ± 0.031	1.02 ± 0.029	1 ± 0.052	0.997 ± 0.059	0.975 ± 0.066
HSPA9 (UniProt P38646)	1.01 ± 0.013	1.04 ± 0.029	0.934 ± 0.081	1.017 ± 0.01	0.959 ± 0.024	0.969 ± 0.077
PPP2R1A (UniProt P30153)	0.975 ± 0.011	0.9688 ± 0.0087	0.95 ± 0.019	0.965 ± 0.03	0.958 ± 0.042	0.949 ± 0.034
MYH9 (UniProt P35579)	1.06 ± 0.049	1.09 ± 0.04	1.04 ± 0.061	1.03 ± 0.063	1 ± 0.051	1.03 ± 0.077
CCNA2 (UniProt P20248)	1.03 ± 0.042	1.07 ± 0.057	1.01 ± 0.033	1.01 ± 0.028	0.975 ± 0.014	1.04 ± 0.071
HNRNPA2B1 (UniProt P22626)	1.03 ± 0.16	1.01 ± 0.089	0.991 ± 0.23	1.03 ± 0.21	1.08 ± 0.17	1.03 ± 0.13
BLVRB (UniProt P30043)	0.984 ± 0.028	0.928 ± 0.081	0.991 ± 0.035	1.04 ± 0.037	1.06 ± 0.032	1.02 ± 0.034
ECHS1 (UniProt P30084)	0.9976 ± 0.0068	0.9885 ± 0.006	0.955 ± 0.029	0.994 ± 0.02	0.963 ± 0.017	0.961 ± 0.015
TAGLN2 (UniProt P37802)	0.942 ± 0.02	0.954 ± 0.017	0.9566 ± 0.0059	0.941 ± 0.029	0.942 ± 0.086	0.89 ± 0.061
PGAM1 (UniProt P18669)	0.934 ± 0.098	0.942 ± 0.039	0.899 ± 0.1	0.952 ± 0.034	0.972 ± 0.074	0.938 ± 0.11
UniProt P36542	0.941 ± 0.047	0.872 ± 0.056	0.889 ± 0.068	1.006 ± 0.0096	0.9834 ± 0.0089	0.969 ± 0.1
MAT2A (UniProt P31153)	0.989 ± 0.025	0.917 ± 0.077	0.963 ± 0.015	0.975 ± 0.021	0.98 ± 0.045	0.951 ± 0.019
RPL13 (UniProt P26373)	0.994 ± 0.11	0.971 ± 0.054	0.94 ± 0.13	0.916 ± 0.13	0.789 ± 0.054	0.958 ± 0.21

Target	NP40-soluble protein abundance (concentration: 1mM)	NP40-soluble protein abundance (concentration: 2mM)	NP40-soluble protein abundance (concentration: 4mM)	NP40-soluble protein abundance (concentration: 6mM)	NP40-soluble protein abundance (concentration: 8mM)	NP40-soluble protein abundance (concentration: 10mM)
UniProt P31327 and related entries	1 ± 0.016	0.979 ± 0.012	0.9848 ± 0.0059	0.9894 ± 0.0069	0.998 ± 0.03	0.989 ± 0.022
UniProt P30049	0.97 ± 0.052	0.965 ± 0.022	0.912 ± 0.058	0.907 ± 0.047	0.895 ± 0.048	0.864 ± 0.049
UQCRC2 (UniProt P22695)	0.978 ± 0.046	0.901 ± 0.014	0.995 ± 0.085	1.06 ± 0.07	1.1 ± 0.043	1.05 ± 0.065
UniProt P27540 and related entries	1.02 ± 0.045	1.07 ± 0.067	1.07 ± 0.019	1.01 ± 0.018	1.03 ± 0.04	1.04 ± 0.035
VDAC1 (UniProt P21796)	0.99 ± 0.034	0.955 ± 0.017	0.966 ± 0.032	1.03 ± 0.063	1.03 ± 0.042	1.03 ± 0.045
ATP6V1E1 (UniProt P36543)	0.969 ± 0.031	0.968 ± 0.018	0.921 ± 0.026	0.935 ± 0.025	0.925 ± 0.025	0.905 ± 0.048
UniProt P20290 and related entries	1.02 ± 0.024	1.08 ± 0.07	1.1 ± 0.043	1.15 ± 0.074	1.19 ± 0.073	1.25 ± 0.082
UniProt P25685 and related entries	1.09 ± 0.044	1.06 ± 0.033	1.07 ± 0.057	1.03 ± 0.015	1.05 ± 0.035	1.06 ± 0.067
UniProt P33240 and related entries	1.02 ± 0.024	1.07 ± 0.063	1.02 ± 0.04	0.9986 ± 0.0025	0.977 ± 0.024	0.991 ± 0.051
MCM5 (UniProt P33992)	0.934 ± 0.014	0.884 ± 0.099	0.92 ± 0.0097	0.913 ± 0.024	0.934 ± 0.036	0.894 ± 0.061
UniProt P28482	0.972 ± 0.033	0.905 ± 0.077	0.9497 ± 0.0082	1.02 ± 0.067	1.01 ± 0.058	0.968 ± 0.037
RAB4A (UniProt P20338)	1 ± 0.024	0.997 ± 0.034	0.989 ± 0.028	1.02 ± 0.034	1.021 ± 0.0099	1.02 ± 0.025
ACAT1 (UniProt P24752)	0.977 ± 0.039	0.97 ± 0.027	0.935 ± 0.039	0.982 ± 0.019	0.958 ± 0.033	0.973 ± 0.023
UniProt P30154 and related entries	0.98 ± 0.029	0.992 ± 0.045	0.969 ± 0.046	0.942 ± 0.029	0.907 ± 0.022	0.956 ± 0.029
PPIB (UniProt P23284)	0.9991 ± 0.0043	0.997 ± 0.021	0.975 ± 0.02	1.09 ± 0.044	1.08 ± 0.025	1.08 ± 0.022
GLDC (UniProt P23378)	0.991 ± 0.042	1.02 ± 0.017	0.974 ± 0.017	0.972 ± 0.043	0.974 ± 0.071	0.969 ± 0.062
PSMB4 (UniProt P28070)	0.931 ± 0.043	0.905 ± 0.048	0.918 ± 0.096	0.971 ± 0.046	0.968 ± 0.071	1 ± 0.13
UniProt P24666 and related entries	1.02 ± 0.04	1 ± 0.022	0.997 ± 0.026	1.02 ± 0.029	1.02 ± 0.048	1.01 ± 0.046
UniProt P32519 and related entries	0.996 ± 0.0076	1.04 ± 0.021	1.001 ± 0.0087	0.991 ± 0.029	0.932 ± 0.013	0.994 ± 0.038
UQCRC1 (UniProt P31930)	1.018 ± 0.004	1.01 ± 0.015	1.01 ± 0.018	0.97 ± 0.016	0.983 ± 0.012	0.973 ± 0.02

Single records (already shown):
ATP6V1E1 (UniProt P36543) as listed: NP40-soluble protein abundance (concentration: 1mM): 0.969 ± 0.031; NP40-soluble protein abundance (concentration: 2mM): 0.968 ± 0.018; NP40-soluble protein abundance (concentration: 4mM): 0.921 ± 0.026; NP40-soluble protein abundance (concentration: 6mM): 0.935 ± 0.025; NP40-soluble protein abundance (concentration: 8mM): 0.925 ± 0.025; NP40-soluble protein abundance (concentration: 10mM): 0.905 ± 0.048
UniProt P27540 and related entries as listed: NP40-soluble protein abundance (concentration: 1mM): 1.02 ± 0.045; NP40-soluble protein abundance (concentration: 2mM): 1.07 ± 0.067; NP40-soluble protein abundance (concentration: 4mM): 1.07 ± 0.019; NP40-soluble protein abundance (concentration: 6mM): 1.01 ± 0.018; NP40-soluble protein abundance (concentration: 8mM): 1.03 ± 0.04; NP40-soluble protein abundance (concentration: 10mM): 1.04 ± 0.035

Following part

Target	NP40-soluble protein abundance (concentration: 1mM)	NP40-soluble protein abundance (concentration: 2mM)	NP40-soluble protein abundance (concentration: 4mM)	NP40-soluble protein abundance (concentration: 6mM)	NP40-soluble protein abundance (concentration: 8mM)	NP40-soluble protein abundance (concentration: 10mM)
RFX1 (UniProt P22670)	1.04 ± 0.016	1.03 ± 0.015	1.03 ± 0.03	1 ± 0.033	1.01 ± 0.025	0.995 ± 0.02
UniProt P32929 and related entries	0.972 ± 0.058	0.911 ± 0.019	0.989 ± 0.051	0.976 ± 0.069	1.02 ± 0.074	0.991 ± 0.068
UniProt P27987 and related entries	0.997 ± 0.042	1.012 ± 0.006	1.01 ± 0.033	1 ± 0.024	0.988 ± 0.03	0.978 ± 0.022
NUP62 (UniProt P37198)	1.01 ± 0.026	1.06 ± 0.078	0.997 ± 0.068	0.998 ± 0.019	1.02 ± 0.027	1.06 ± 0.048
UniProt P36507	1.04 ± 0.037	1.05 ± 0.08	1.01 ± 0.066	1.05 ± 0.029	1.02 ± 0.061	1.04 ± 0.077
UniProt P17542 and related entries	0.988 ± 0.032	1.02 ± 0.043	0.958 ± 0.033	0.973 ± 0.023	0.949 ± 0.016	0.954 ± 0.031
UniProt P20020 and related entries	1.03 ± 0.032	1.06 ± 0.044	1.03 ± 0.037	0.964 ± 0.012	0.96 ± 0.024	0.988 ± 0.057
UniProt P25398	0.934 ± 0.016	0.955 ± 0.044	0.869 ± 0.053	0.872 ± 0.033	0.81 ± 0.054	0.847 ± 0.049
CORO1A (UniProt P31146)	1.04 ± 0.015	1.01 ± 0.024	1.05 ± 0.032	1.11 ± 0.042	1.11 ± 0.08	1.11 ± 0.12
GOT1 (UniProt P17174)	0.988 ± 0.018	0.954 ± 0.031	0.9656 ± 0.0063	0.97 ± 0.024	0.966 ± 0.019	0.949 ± 0.022
HMGCL (UniProt P35914)	0.963 ± 0.013	1 ± 0.047	0.966 ± 0.029	0.97571 ± 0.00013	0.964 ± 0.03	0.983 ± 0.017
UniProt P25325 and related entries	1.05 ± 0.04	1.03 ± 0.067	0.948 ± 0.042	0.975 ± 0.049	0.914 ± 0.015	0.97 ± 0.026
ZKSCAN1 (UniProt P17029)	1.02 ± 0.028	1.01 ± 0.078	0.966 ± 0.042	0.934 ± 0.017	0.921 ± 0.06	0.917 ± 0.034
PFKL (UniProt P17858)	1.01 ± 0.044	0.924 ± 0.15	0.993 ± 0.059	0.967 ± 0.035	1.02 ± 0.054	0.94 ± 0.081
UniProt P25705 and related entries	0.973 ± 0.036	0.929 ± 0.044	0.934 ± 0.044	0.982 ± 0.021	0.976 ± 0.03	0.961 ± 0.077
UniProt P37837 and related entries	1.028 ± 0.0097	1.04 ± 0.077	0.966 ± 0.054	1.01 ± 0.028	0.988 ± 0.031	1.01 ± 0.056
UniProt P19838 and related entries	0.998 ± 0.015	0.955 ± 0.064	0.962 ± 0.016	0.966 ± 0.031	0.948 ± 0.023	0.929 ± 0.025
UniProt P28838 and related entries	0.979 ± 0.012	0.931 ± 0.075	0.954 ± 0.021	0.932 ± 0.027	0.929 ± 0.021	0.92 ± 0.031
UniProt P21675 and related entries	1 ± 0.03	1.04 ± 0.029	1.04 ± 0.044	1.03 ± 0.074	1.01 ± 0.074	1.06 ± 0.11
UniProt P29144 and related entries	0.95 ± 0.11	0.889 ± 0.12	0.917 ± 0.12	0.889 ± 0.11	0.925 ± 0.12	0.891 ± 0.14
